Source: PubChem BioAssay AID1259299 (Sanger Institute, 2017)

- Purpose: 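Kinases and colorectal mutated genes needed by colorectal cancer cells, with or without drugs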 (primary screen)
- Cells: human CAR1 colorectal cancer cells
- Knock-down reagent: siRNA pool against human genes
- Conditions: anchor drug BYL719 1 µM, cetuximab 5 µg/ml or trametinib 10 nM, or DMSO vehicle alone; exposure length not given
- Read-out: 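Mean replicate viability versus non-targeting controls, turned into robust z-scores, plus drug synergy scores for BYL719, cetuximab and trametinib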
- Direction: viability robust z-score, knock-down alone and viability, knock-down alone (DMSO): higher = more viable cells
- Rule for the call: 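Essential when viability robust z-score with knock-down alone (DMSO) is below -3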
- Meaning of the calls: active = essential (knock-down alone); inactive = no change
This is one part, drawn at random, of 794 reagents tested. In the full data, 9 (1.1%) got an active call. 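Calls rest on knock-down alone; synergy scores play no part in calls, and no gene passed the synergy cut.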 Viability is capped at 1. Further read-outs or replicates are left out here. The record does not give: the amount of reagent, the time to read-out.

gene knocked down	viability robust z-score, knock-down alone	viability, knock-down alone (DMSO) (fraction of control)	Outcome
IRAK2 (interleukin 1 receptor associated kinase 2)	0.445	0.968	inactive
CDC42BPG (CDC42 binding protein kinase gamma)	0.789	1	inactive
RIPK2 (receptor interacting serine/threonine kinase 2)	-0.466	0.884	inactive
PI4KA (phosphatidylinositol 4-kinase alpha)	-0.255	0.904	inactive
ADCK5 (aarF domain containing kinase 5)	0.789	1	inactive
MAP4K2 (mitogen-activated protein kinase kinase kinase kinase 2)	0.789	1	inactive
UCK2 (uridine-cytidine kinase 2)	0.789	1	inactive
CSK (C-terminal Src kinase)	0.478	0.971	inactive
WHR1 (winged helix repair factor 1)	0.789	1	inactive
PRPS2 (phosphoribosyl pyrophosphate synthetase 2)	0.232	0.949	inactive
STK26 (serine/threonine kinase 26)	0.789	1	inactive
WEE1 (WEE1 G2 checkpoint kinase)	-3.76	0.579	active
HK1 (hexokinase 1)	0.789	1	inactive
GTF2H1 (general transcription factor IIH subunit 1)	-0.288	0.901	inactive
WT1 (WT1 transcription factor)	0.789	1	inactive
BUB1 (BUB1 mitotic checkpoint serine/threonine kinase)	0.789	1	inactive
HIPK3 (homeodomain interacting protein kinase 3)	-0.701	0.862	inactive
MAP3K13 (mitogen-activated protein kinase kinase kinase 13)	0.789	1	inactive
FLT1 (fms related receptor tyrosine kinase 1)	-0.503	0.881	inactive

Quoted from the entries so far, 3 entries:
gene knocked down	viability robust z-score, knock-down alone	viability, knock-down alone (DMSO) (fraction of control)	Outcome
ADCK5 (aarF domain containing kinase 5)	0.789	1	inactive
MAP4K2 (mitogen-activated protein kinase kinase kinase kinase 2)	0.789	1	inactive
UCK2 (uridine-cytidine kinase 2)	0.789	1	inactive

More results follow:
gene knocked down	viability robust z-score, knock-down alone	viability, knock-down alone (DMSO) (fraction of control)	Outcome
PTPRU (protein tyrosine phosphatase receptor type U)	-0.77	0.856	inactive
GRK4 (G protein-coupled receptor kinase 4)	-0.0168	0.926	inactive
NEK8 (NIMA related kinase 8)	-1.61	0.778	inactive
TCF7L2 (transcription factor 7 like 2)	0.789	1	inactive
CLK1 (CDC like kinase 1)	0.284	0.953	inactive
CALM2 (calmodulin 2)	-0.106	0.917	inactive
PIK3R2 (phosphoinositide-3-kinase regulatory subunit 2)	0.0848	0.935	inactive
CERK (ceramide kinase)	0.789	1	inactive
CDKL4 (cyclin dependent kinase like 4)	-0.808	0.853	inactive
AKT3 (AKT serine/threonine kinase 3)	-0.648	0.867	inactive
HUNK (hormonally up-regulated Neu-associated kinase)	-1.33	0.804	inactive
JAK2 (Janus kinase 2)	-6.02	0.371	active
NUAK1 (NUAK family kinase 1)	0.117	0.938	inactive
ACVR2B (activin A receptor type 2B)	-0.273	0.902	inactive
BCKDK (branched chain keto acid dehydrogenase kinase)	0.789	1	inactive
NRBP2 (nuclear receptor binding protein 2)	-0.692	0.863	inactive
PIK3R4 (phosphoinositide-3-kinase regulatory subunit 4)	-0.85	0.849	inactive
DCLK1 (doublecortin like kinase 1)	0.789	1	inactive
BRWD1 (bromodomain and WD repeat domain containing 1)	0.196	0.945	inactive
